Measurements taken from paper PMC10570296.

Molecular target: PHD motif of PHF2 (segment) (human)
Assay: pull-down; Flag/SBP-tagged segments purified on streptavidin (SA) affinity beads from lysates of transfected HepG2 or 293T cells after MG132 for 8 h; immunoblotting

B1: Flag-tagged rat SREBP1c, amino-terminal fragment (1–403 amino acids) (domain or fragment, UniProt P56720-1 1-403)
chain: MDCTFEDMLQLINNQDSDFPGLFDAPYAGGETGDTGPSSPGASSPESFSSPASLGSSLEAFLGGPKVTPAPLSPPPSAPTAVKMYPSVPPFSPGPGIKEEPVPLTILQPPAPQPSPGTLLPPSFPPPPVQLSPAPVLGYSSLPSGFSGTLPGNTQQTPSSLPLGSTPGISPTPLHTQVQSSAAQQPPPASAAPRMSTVASQIQQVPVVLQPHFIKADSLLLTAVKTDTGATMKTAGINTLAPGTAVQAGPLQTLVSGGTILATVPLVVDTDKLPIHRLAAGGKALGSAQSRGEKRTAHNAIEKRYRSSINDKIVELKDLVVGTEAKLNKSAVLRKAIDYIRFLQHSNQKLKQENLTLRSAHKSKSLKDLVSACGSGGGTDVSMEGMKPEVVETLTPPPSDAGS
binding: binds

These are yes or no findings as the source states them, for the method shown. In cells and extracts the contact can be indirect. Binding calls can cover weak binding; strength is not graded here. Tags and fused reporters may be left off the sequences shown.
